From PubChem BioAssay AID328 (DTP/NCI, 2004)
The list is a part of this screen's results and no random one: it is rich in T/C values a quarter to a half above the control, in often repeated tests (any T/C) and in doses without a T/C. Other doses and runs of a compound stand elsewhere. T/C: endpoint of the treated group in % of that of the vehicle group. Some doses have a count of surviving animals in place of a T/C: the source holds a T/C of zero for them, seemingly a mark for toxic or unscored doses. Some survivor counts are full or nearly so, which does not show that the dose was tolerated: survival well below the control is almost never listed, so the zero probably covers shortened survival too. Survivors were counted at the toxicity check, usually on the fifth day, unless a day is given; later deaths do not show. Schedule codes are those of the source, taken here to give the interval after Q, in days (D) or hours (H), and the number of doses after X. Some doses were run more than once; the values are given in rising order. Where survival is the endpoint, the PubChem record calls one and a half times the control and up active, and a quarter to a half above the control has no call in these data; cut-offs in other NCI protocols can differ. Marks such as (2×) give the number of equal values in this list. Some T/C values are followed by the survivors on the day toxicity was checked, most often the fifth; without a count, all were alive then.

Test system: BDF1 mice, P388 leukemia ip, median survival T/C
Test: NCI In Vivo Anticancer Drug Screen. Data for tumor model P388 Leukemia (intraperitoneal) in B6D2F1 (BDF1) mice
Settings: T/C endpoint: median survival time, higher T/C = longer survival
Method: The antitumor activity of compounds was measured in mice bearing transplantable tumors. Survival or tumor size were measured and the results are expressed as the measurement made in the treated group (T) divided by the measurement made in the vehicle treated control group (C). The tumor model used in this assay is P388 Leukemia (intraperitoneal) in B6D2F1 (BDF1) mice

[1] = dose: 50.0 mg/kg/injection, schedule: Q01DX009 (ip), vehicle: saline
[2] = dose: 75.0 mg/kg/injection, schedule: Q01DX009 (ip), vehicle: saline
[3] = dose: 100.0 mg/kg/injection, schedule: Q01DX009 (ip), vehicle: saline
[4] = dose: 50.0 mg/kg/injection, schedule: Q01DX009 (ip), vehicle: saline with Tween-80
[5] = dose: 100.0 mg/kg/injection, schedule: Q01DX009 (ip), vehicle: Klucel (hydroxypropylcellulose) (HPC)
[6] = dose: 200.0 mg/kg/injection, schedule: Q01DX009 (ip), vehicle: Klucel (hydroxypropylcellulose) (HPC)
[7] = dose: 200.0 mg/kg/injection, schedule: Q01DX009 (ip), vehicle: saline with Tween-80
[8] = dose: 400.0 mg/kg/injection, schedule: Q01DX009 (ip), vehicle: water
[9] = dose: 25.0 mg/kg/injection, schedule: Q01DX009 (ip), vehicle: saline with Tween-80
[10] = dose: 100.0 mg/kg/injection, schedule: Q01DX009 (ip), vehicle: saline with Tween-80
[11] = dose: 100.0 mg/kg/injection, schedule: Q04DX003 (ip), vehicle: saline with Tween-80
[12] = dose: 50.0 mg/kg/injection, schedule: Q01DX009 (ip), vehicle: Klucel (hydroxypropylcellulose) (HPC)
[13] = dose: 400.0 mg/kg/injection, schedule: Q04DX003 (ip), vehicle: saline with Tween-80
[14] = dose: 25.0 mg/kg/injection, schedule: Q01DX009 (ip), vehicle: saline
[15] = dose: 200.0 mg/kg/injection, schedule: Q04DX003 (ip), vehicle: saline
[16] = dose: 200.0 mg/kg/injection, schedule: Q04DX003 (ip), vehicle: saline with Tween-80

Structure (SMILES): CCCCCOC(CN)C(Cl)(Cl)Cl (centres undefined)
- T/C [1]: 130 % of control [5 of 6 alive]
- T/C [2]: 127 % of control
- survivor count [3]: 6 of 6

Structure (SMILES): C=CCNc1ccc(C)cc1
- T/C [4]: 127 % of control
- T/C [5]: 136 % of control
- T/C [6]: 136 % of control
- survivor count [7]: 0 of 6

Structure (SMILES): CCCCNC(C)(C)C(SS)c1ccc(Cl)cc1 (centres undefined)
- survivor count (dose: 400.0 mg/kg/injection, schedule: Q04DX003 (ip), vehicle: Klucel (hydroxypropylcellulose) (HPC)): 1 of 6

Structure (SMILES): OC(CI)C(O)C(O)C(O)CI (centres undefined)
- T/C (dose: 132.0 mg/kg/injection, schedule: Q01DX009 (ip), vehicle: saline with Tween-80): 140 % of control
- T/C [7]: 125 % of control

Structure (SMILES): O=C(O)c1c[nH]c2nccnc12
- survivor count (dose: 50.0 mg/kg/injection, schedule: Q01DX009 (ip), vehicle: water): 6 of 6
- survivor count (dose: 200.0 mg/kg/injection, schedule: Q01DX009 (ip), vehicle: water): 4 of 6
- survivor count [8]: 5 of 6

Structure (SMILES): O=c1nc(Oc2ccccc2)nc2ncccn12
- T/C [9]: 140 % of control
- T/C [4]: 130 % of control [5 of 6 alive]
- survivor count [4]: 5 of 6
- survivor count [10]: 1 of 6 and 2 of 6
- survivor count [7]: 0 of 6

Structure (SMILES): COC(=O)c1cccc(OP(=O)(N(C)C)N(C)C)c1
- survivor count [7]: 0 of 6

Structure (SMILES): O=S1(=O)CC=C1c1ccccc1
- T/C [4]: 126 % of control
- T/C [10]: 141 % of control
- survivor count [7]: 1 of 6

Structure (SMILES): CS(=O)/C=C(\c1ccccc1)c1cccs1 (centres undefined)
- survivor count [7]: 3 of 6

Structure (SMILES): CCCCCCCCCCC(=O)N1CCOCC1
- survivor count [11]: 2 of 6

Structure (SMILES): Cc1ccc(C)c(Nc2cc(=O)[nH]c(=O)[nH]2)c1
- survivor count (dose: 400.0 mg/kg/injection, schedule: Q01DX001 (ip), vehicle: Klucel (hydroxypropylcellulose) (HPC)): 2 of 6

Structure (SMILES): N#CC(=C1C=CC(=NO)C=C1)c1ccc(Cl)cc1
- survivor count [6]: 2 of 6
- survivor count (dose: 400.0 mg/kg/injection, schedule: Q01DX009 (ip), vehicle: Klucel (hydroxypropylcellulose) (HPC)): 0 of 6

Structure (SMILES): CCOC(=O)N=C=O
- survivor count [8]: 4 of 6

Structure (SMILES): O=[N+]([O-])c1ccc(-[n+]2nc(-c3ccccc3)nn2-c2ccc(I)cc2)cc1
- survivor count [12]: 6 of 6

Structure (SMILES): CCOC(=O)CCC[P+](c1ccccc1)(c1ccccc1)c1ccccc1
- T/C (dose: 8.8 mg/kg/injection, schedule: Q01DX009 (ip), vehicle: saline with Tween-80): 140 % of control
- T/C (dose: 22.0 mg/kg/injection, schedule: Q01DX009 (ip), vehicle: saline with Tween-80): 139 and 142 % of control
- T/C (dose: 33.0 mg/kg/injection, schedule: Q01DX009 (ip), vehicle: saline with Tween-80): 136 and 143 % of control
- T/C (dose: 40.0 mg/kg/injection, schedule: Q01DX009 (ip), vehicle: saline with Tween-80): 127 % of control
- T/C [4]: 131 and 142 % of control
- T/C (dose: 75.0 mg/kg/injection, schedule: Q01DX009 (ip), vehicle: saline with Tween-80): 130 % of control [5 of 6 alive]
- T/C (dose: 80.0 mg/kg/injection, schedule: Q01DX009 (ip), vehicle: saline with Tween-80): 126 % of control
- survivor count [7]: 4 of 6
- survivor count [13]: 4 of 6

Structure (SMILES): CN(C)CCCCc1cn(-c2ccccc2)c2ccccc12
- T/C [14]: 130 % of control
- T/C [1]: 130 % of control
- survivor count [2]: 2 of 6

Structure (SMILES): CCCCCCCC(=O)OCC(=O)[C@]1(O)Cc2c(O)c3c(c(O)c2[C@@H](OC2CC(N)C(O)C(C)O2)C1)C(=O)c1c(OC)cccc1C3=O (some centres undefined)
- T/C (dose: 0.5 mg/kg/injection, schedule: Q01DX009 (ip), vehicle: water): 125 % of control
- survivor count (dose: 4.0 mg/kg/injection, schedule: Q01DX009 (ip), vehicle: water): 8 of 8
- T/C (dose: 5.0 mg/kg/injection, schedule: Q04DX003 (ip), vehicle: water): 133 % of control [5 of 6 alive]
- survivor count (dose: 8.0 mg/kg/injection, schedule: Q01DX009 (ip), vehicle: water): 5 of 8 and 6 of 8
- survivor count (dose: 13.33 mg/kg/injection, schedule: Q04DX003 (ip), vehicle: water): 8 of 8
- survivor count (dose: 16.0 mg/kg/injection, schedule: Q04DX003 (ip), vehicle: water): 6 of 8
- T/C (dose: 20.0 mg/kg/injection, schedule: Q04DX003 (ip), vehicle: water): 126 % of control

Structure (SMILES): CCS(=O)(=O)OCCCCOS(=O)(=O)CC
- T/C [4]: 131 % of control [5 of 6 alive]
- survivor count [7]: 0 of 6

Structure (SMILES): CCCCNC(C)(C)C(SSC(c1cccs1)C(C)(C)NCCCC)c1cccs1 (centres undefined)
- survivor count [10]: 6 of 6

Structure (SMILES): COc1ccc(S(=O)(=O)Nc2c([N+](=O)[O-])cc([N+](=O)[O-])c3ccccc23)cc1
- survivor count [10]: 3 of 6

Structure (SMILES): CCCCCCCCCCCCC1CC(=O)OC1=O (centres undefined)
- survivor count [15]: 5 of 6

Structure (SMILES): CN(CCCCN(C)CCOS(C)(=O)=O)CCOS(C)(=O)=O
- survivor count [11]: 0 of 6
- survivor count [16]: 0 of 6
- survivor count [13]: 0 of 6

Structure (SMILES): Clc1nc(Cl)c(Nc2ccn[nH]2)nc1Cl
- survivor count [7]: 2 of 6

Structure (SMILES): CNC=O
- survivor count (dose: 7.5 mg/kg/injection, schedule: Q01DX010 (ip), vehicle: saline): 6 of 6

Structure (SMILES): CC[n+]1ccc(Cc2ccc([N+](=O)[O-])cc2)cc1
- survivor count [12]: 1 of 6
- T/C [5]: 127 % of control
- survivor count [5]: 0 of 6

Structure (SMILES): CCCCSc1ncnc2nc[nH]c12
- survivor count [13]: 1 of 6

Structure (SMILES): NNC(=O)c1ccncc1
- survivor count [14]: 6 of 6
- survivor count [1]: 6 of 6
- T/C [3]: 130 % of control
- survivor count [3]: 6 of 6
- survivor count (dose: 200.0 mg/kg/injection, schedule: Q01DX009 (ip), vehicle: saline): 3 of 6

Structure (SMILES): CCOC(=O)/C=C/C(C(=O)OCC)C(=O)OCC
- T/C (dose: 300.0 mg/kg/injection, schedule: Q04DX003 (ip), vehicle: saline with Tween-80): 130 % of control

Structure (SMILES): CCO/C=C1\SC(=S)N(Cc2ccccc2)C1=O
- survivor count (dose: 50.0 mg/kg/injection, schedule: Q01DX009 (ip), vehicle: other): 3 of 6
- T/C (dose: 66.0 mg/kg/injection, schedule: Q04DX003 (ip), vehicle: other): 127 % of control
- survivor count (dose: 66.0 mg/kg/injection, schedule: Q04DX003 (ip), vehicle: saline + alcohol): 6 of 6
- T/C (dose: 66.0 mg/kg/injection, schedule: Q04DX003 (ip), vehicle: saline with Tween-80): 136 % of control
- T/C (dose: 100.0 mg/kg/injection, schedule: Q04DX003 (ip), vehicle: other): 127 % of control (2×)
- T/C [11]: 127 % of control
- survivor count (dose: 200.0 mg/kg/injection, schedule: Q04DX003 (ip), vehicle: other): 6 of 6
- survivor count (dose: 400.0 mg/kg/injection, schedule: Q04DX003 (ip), vehicle: other): 3 of 6

Structure (SMILES): CC1(C)COCN1CN1COCC1(C)C
- survivor count [15]: 3 of 6

Structure (SMILES): O=[N+]([O-])c1ccc(C(O)Nc2nccs2)o1 (centres undefined)
- T/C [9]: 135 % of control [5 of 6 alive]
- T/C [4]: 130 % of control
- survivor count [10]: 0 of 6
- survivor count [11]: 3 of 6
- survivor count [16]: 1 of 6

Structure (SMILES): CCN(CC)CCCC(C)Nc1ccnc2cc(Cl)ccc12 (centres undefined)
- survivor count (dose: 25.0 mg/kg/injection, schedule: Q01DX010 (ip), vehicle: saline): 6 of 6
- survivor count (dose: 100.0 mg/kg/injection, schedule: Q01DX010 (ip), vehicle: saline): 5 of 6
- survivor count (dose: 115.0 mg/kg/injection, schedule: Q01DX009 (ip), vehicle: saline): 2 of 6
- survivor count (dose: 200.0 mg/kg/injection, schedule: Q01DX010 (ip), vehicle: saline): 0 of 6

Structure (SMILES): CCOC(=O)C1CC1c1ccccc1 (centres undefined)
- T/C [4]: 130 % of control
- T/C [7]: 125 % of control

Structure (SMILES): CCOC(=O)c1sc2nc(C)cc(C)c2c1N
- survivor count (dose: 50.0 mg/kg/injection, schedule: Q01DX005 (ip), vehicle: saline with Tween-80): 5 of 5
